Reference: PubChem BioAssay AID1347076 (National Center for Advancing Translational Sciences (NCATS), 2019)
Screen size: about 400,000 compounds; about 13,000 (3.2%) were called active. This list was built around the results that the source calls inconclusive (neither active nor inactive); the mix of calls is not that of the screen. Calls come from the whole dose curve; as a rule, active = well fitted cell-killing curve with a large enough effect; inconclusive = small, poorly fitted or top-dose-only effect, or effect the other way; inactive = flat fitted curve, though single readings scatter. Potencies beside an inconclusive call are fits to weak or partial responses and may not hold up.

Experiment: qHTS assay for MDR1-selective chemotherapeutics: Primary screen using the drug-selected MDR subline cells KB-V1; note: nearly all actives have a fitted effect of over 60% in size
Details: KB-V1 MDR cells viability, CellTiter-Glo, 72 h; series mostly up to 46.1 µM
Procedure, shortened: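 Compound-treated KB-V1 multidrug-resistant cells, 72 h, 37 degrees C; viability by CellTiter-Glo. Fitted qHTS curves give the values.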
Potency is the fitted concentration of half-maximal effect.

SMILES | Potency
CCOC(=O)c1c(NC=O)sc2c1CCC2 | inconclusive: 14.6 µM [cytotoxic, partial curve, poor fit]
O=C(NC12CC3CC(CC(C3)C1)C2)c1ccc(N2CCNCC2)c([N+](=O)[O-])c1 | active: 23.1 µM
CC1CN(c2ncc(/C=N/NC(=O)c3ccccc3O)s2)CC(C)O1 (centres undefined) | inconclusive: 23.1 µM [cytotoxic, single point]
COc1cccc(/C=C/C(=O)OCC(=O)N(C)CC(=O)Nc2ccccc2Cl)c1OC | inactive
c1ccc(Cn2nnc3c(N4CCCCCC4)ncnc32)cc1 | inactive
O=C(COC(=O)c1cc(Cl)ccc1[N+](=O)[O-])NC1CC1 | inconclusive: 25.9 µM [rising, single point]
Cc1cccc(C(=O)OCC(=O)N(C)C(c2ccccc2)c2ccccc2)c1[N+](=O)[O-] | inactive
CCCC(C(=O)NCc1cccc(Cl)c1)N1Cc2ccccc2C1=O (centres undefined) | inactive
Cc1cc(C)c(C)c(S(=O)(=O)Nc2ccc3cn[nH]c3c2)c1C | inconclusive: 9.2 µM [cytotoxic, partial curve, poor fit]
O=C(NCc1cccnc1)c1ccc(COc2ccc(Cl)cc2)cc1 | inactive
Cc1cc2c(cc1NS(=O)(=O)c1ccc(F)cc1)n(C)c(=O)c(=O)n2C | inconclusive: 29.1 µM [rising, single point]
COc1ccccc1NC(=O)Cn1c(=O)oc2cc(S(=O)(=O)N3CCCC3)ccc21 | inconclusive: 0.366 µM [rising, full curve, poor fit]
Cc1cccc(NC(=O)c2ccc3snnc3c2)c1 | inconclusive: 3.66 µM [rising, partial curve, poor fit]
Cc1cccc(-c2nc3cc(NC(=O)C4CCCO4)ccc3o2)c1 (centres undefined) | active: 13 µM
Fc1ccc(Sc2cc(Cl)c(-c3ccccc3)nn2)cc1 | inconclusive: 16.4 µM [cytotoxic, single point]
CCN1CCOC(=O)C1CC(=O)Nc1cc(C)ccc1OC (centres undefined) | inconclusive: 25.9 µM [rising, single point]
Oc1ccccc1/C=N/Nc1ccnc(SCc2ccccc2)n1 | inconclusive: 2.91 µM [cytotoxic, full curve]
Cc1ccc2nc(-c3ccc(Cl)c(NC(=O)COc4cccc(C)c4C)c3)oc2c1 | inconclusive: 29.1 µM [rising, single point]
Cc1cc(NC(=O)CCC(=O)N(CCC(C)C)C(C(=O)NCC2CCCO2)c2ccccc2C)no1 (centres undefined) | inactive
CCSc1nc2ccccc2n1C(=O)/C=C/c1ccc(OC)c(OC)c1 | inconclusive: 25.9 µM [cytotoxic, single point]
CCOC(=O)c1sc(NC(=O)c2ccc(OC)cc2)nc1C | inactive
COc1ccc(C(=O)/C(=C\N(C)C)n2nc(C)cc2C)cc1 | inconclusive: 20.6 µM [rising, single point]

SMILES | Potency
CCOc1ccc(C(=S)NC2CCCCC2)cc1OCC | inconclusive: 6.51 µM [cytotoxic, partial curve]
COC(=O)c1cn(CCOc2ccccc2OC)c2ccccc12 | inconclusive: 20.6 µM [cytotoxic, single point]
O=C(Nc1cccc(Cl)c1)C1CCN(C(=O)c2cccs2)CC1 | inactive
N#C/C(=C\c1cn(CCOc2ccccc2)c2ccccc12)C(=O)NCC1CCCO1 (centres undefined) | active: 6.51 µM
CC(C)(C)OC(=O)N(Cc1ccccc1)Cc1ccc(OCc2cccc(NC(=O)C3CC3)c2)cc1 | inconclusive: 29.1 µM [cytotoxic, single point]
O=C(COC(=O)C1CC2CCCC(C1)C2=O)Nc1nc(-c2ccc(F)c(F)c2)cs1 (centres undefined) | inactive
O=C(Cn1[nH]c(=O)c2ccccc2c1=O)OCC(=O)c1ccccc1 | inactive
CCc1cccc2c(C(=O)CSc3nnc(C4CC4)o3)c[nH]c12 | inconclusive: 29.1 µM [cytotoxic, single point]
Cc1cccc(CNC(=O)c2sc(=O)n(Cc3ccc(S(C)(=O)=O)cc3)c2C)c1 | active: 14.6 µM
CN(CC(=O)Nc1cccc(S(=O)(=O)N2CCOCC2)c1)CC(=O)Nc1ccc(Cl)c(C(F)(F)F)c1 | inconclusive: 18.4 µM [cytotoxic, single point]
O=C(CSc1nc2ccccc2o1)Nc1cc(C(F)(F)F)ccc1N1CCOCC1 | inconclusive: 29.1 µM [cytotoxic, single point]
COc1ccc(OC)c(S(=O)(=O)N2CCCC(C(=O)N3CCOCC3)C2)c1 (centres undefined) | inconclusive: 2.91 µM [cytotoxic, full curve, poor fit]
COc1ccc(-c2coc3c(C(=O)NCc4ccc(OC)c(OC)c4)cccc23)c(C)c1 | inconclusive: 20.6 µM [cytotoxic, partial curve]
Cn1c(=O)c2c(nc(N3CCCCC3)n2CC(O)COc2ccccc2)n(C)c1=O (centres undefined) | inactive
O=C(CSc1ccc(-c2cccc([N+](=O)[O-])c2)nn1)NCc1ccccc1 | inconclusive: 11.6 µM [cytotoxic, partial curve]
COc1ccc(/C=C/c2ccc3cccc(O)c3n2)cc1Br | inactive
Cc1cc(C)c2cc(CN(Cc3cccs3)Cc3nnnn3CC3CCCO3)c(=O)[nH]c2c1 (centres undefined) | active: 16.4 µM
Cc1ccc2c(c1)c(-c1ccccc1)nc1nncn12 | inconclusive: 29.1 µM [cytotoxic, single point]
O=C(c1cc(-c2ccccc2)nn1-c1ccccc1)N1CCN(S(=O)(=O)c2ccc(F)cc2)CC1 | inconclusive: 5.8 µM [cytotoxic, full curve]
CCc1cccc(C)c1NS(=O)(=O)c1cc2[nH]c(=O)c(=O)[nH]c2cc1C | inconclusive: 29.1 µM [rising, single point]
CCN(CC(=O)Nc1ccc(OC)cc1)C(=O)c1ccc2c(c1)NC(=O)C(C)S2 (centres undefined) | inconclusive: 0.461 µM [rising, full curve, poor fit]
CC1CCc2nc3ccc(S(=O)(=O)N4CCC(C(=O)NC(C)c5ccccc5)CC4)cc3c(C(=O)O)c2C1 (centres undefined) | inconclusive: 6.51 µM [rising, full curve]

Three entries from above, ordered by SMILES length, rising.
SMILES | Potency
Cc1ccc2c(c1)c(-c1ccccc1)nc1nncn12 | inconclusive: 29.1 µM [cytotoxic, single point]
COc1ccc(/C=C/c2ccc3cccc(O)c3n2)cc1Br | inactive
Cn1c(=O)c2c(nc(N3CCCCC3)n2CC(O)COc2ccccc2)n(C)c1=O (centres undefined) | inactive
